Data as given in the supplement of paper PMC10849652.
The other results are listed elsewhere or left out.

Sequences of proteins named here, by UniProt entry; tags and fusion partners are left off. A change or cut given only in a name is not applied to a line headed by its entry.
UniProt Q07866: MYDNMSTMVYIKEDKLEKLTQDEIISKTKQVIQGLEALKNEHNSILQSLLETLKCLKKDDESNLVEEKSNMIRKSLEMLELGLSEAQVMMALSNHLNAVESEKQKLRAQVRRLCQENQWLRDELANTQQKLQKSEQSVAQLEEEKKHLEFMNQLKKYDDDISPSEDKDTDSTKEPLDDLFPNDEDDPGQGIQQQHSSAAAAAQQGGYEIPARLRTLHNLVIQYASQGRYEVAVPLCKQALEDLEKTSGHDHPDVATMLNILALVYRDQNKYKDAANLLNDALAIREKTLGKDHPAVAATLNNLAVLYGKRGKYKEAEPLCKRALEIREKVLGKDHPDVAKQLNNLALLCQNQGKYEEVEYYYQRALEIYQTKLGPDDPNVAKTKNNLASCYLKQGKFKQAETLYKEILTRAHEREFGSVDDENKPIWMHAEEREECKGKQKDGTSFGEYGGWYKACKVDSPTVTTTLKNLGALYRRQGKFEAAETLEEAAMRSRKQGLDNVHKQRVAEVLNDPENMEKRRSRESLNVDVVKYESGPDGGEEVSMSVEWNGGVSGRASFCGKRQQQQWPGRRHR
UniProt O00139: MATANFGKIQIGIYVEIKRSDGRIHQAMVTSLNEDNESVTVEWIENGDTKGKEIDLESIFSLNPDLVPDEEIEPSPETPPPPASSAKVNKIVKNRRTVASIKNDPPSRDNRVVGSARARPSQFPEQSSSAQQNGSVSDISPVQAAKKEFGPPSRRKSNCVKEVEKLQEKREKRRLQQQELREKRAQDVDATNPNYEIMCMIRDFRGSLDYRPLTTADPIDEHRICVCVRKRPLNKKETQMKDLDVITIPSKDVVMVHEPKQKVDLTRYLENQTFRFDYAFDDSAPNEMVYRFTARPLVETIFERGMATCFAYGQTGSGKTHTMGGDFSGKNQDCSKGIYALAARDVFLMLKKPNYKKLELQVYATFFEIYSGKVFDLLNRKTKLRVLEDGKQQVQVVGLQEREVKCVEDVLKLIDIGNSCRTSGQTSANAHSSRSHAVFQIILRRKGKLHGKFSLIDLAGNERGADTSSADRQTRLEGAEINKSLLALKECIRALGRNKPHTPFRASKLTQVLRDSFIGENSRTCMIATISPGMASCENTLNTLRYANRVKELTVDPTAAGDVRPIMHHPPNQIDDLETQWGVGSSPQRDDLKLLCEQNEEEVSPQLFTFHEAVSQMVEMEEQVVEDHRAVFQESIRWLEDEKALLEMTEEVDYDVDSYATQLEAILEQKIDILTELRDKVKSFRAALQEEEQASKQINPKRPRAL
UniProt Q8N5M9: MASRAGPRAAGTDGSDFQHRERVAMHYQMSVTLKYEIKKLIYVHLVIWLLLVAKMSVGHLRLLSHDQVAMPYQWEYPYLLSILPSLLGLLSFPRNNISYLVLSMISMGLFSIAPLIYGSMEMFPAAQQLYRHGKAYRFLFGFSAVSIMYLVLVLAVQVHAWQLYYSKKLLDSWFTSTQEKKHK
UniProt Q14667: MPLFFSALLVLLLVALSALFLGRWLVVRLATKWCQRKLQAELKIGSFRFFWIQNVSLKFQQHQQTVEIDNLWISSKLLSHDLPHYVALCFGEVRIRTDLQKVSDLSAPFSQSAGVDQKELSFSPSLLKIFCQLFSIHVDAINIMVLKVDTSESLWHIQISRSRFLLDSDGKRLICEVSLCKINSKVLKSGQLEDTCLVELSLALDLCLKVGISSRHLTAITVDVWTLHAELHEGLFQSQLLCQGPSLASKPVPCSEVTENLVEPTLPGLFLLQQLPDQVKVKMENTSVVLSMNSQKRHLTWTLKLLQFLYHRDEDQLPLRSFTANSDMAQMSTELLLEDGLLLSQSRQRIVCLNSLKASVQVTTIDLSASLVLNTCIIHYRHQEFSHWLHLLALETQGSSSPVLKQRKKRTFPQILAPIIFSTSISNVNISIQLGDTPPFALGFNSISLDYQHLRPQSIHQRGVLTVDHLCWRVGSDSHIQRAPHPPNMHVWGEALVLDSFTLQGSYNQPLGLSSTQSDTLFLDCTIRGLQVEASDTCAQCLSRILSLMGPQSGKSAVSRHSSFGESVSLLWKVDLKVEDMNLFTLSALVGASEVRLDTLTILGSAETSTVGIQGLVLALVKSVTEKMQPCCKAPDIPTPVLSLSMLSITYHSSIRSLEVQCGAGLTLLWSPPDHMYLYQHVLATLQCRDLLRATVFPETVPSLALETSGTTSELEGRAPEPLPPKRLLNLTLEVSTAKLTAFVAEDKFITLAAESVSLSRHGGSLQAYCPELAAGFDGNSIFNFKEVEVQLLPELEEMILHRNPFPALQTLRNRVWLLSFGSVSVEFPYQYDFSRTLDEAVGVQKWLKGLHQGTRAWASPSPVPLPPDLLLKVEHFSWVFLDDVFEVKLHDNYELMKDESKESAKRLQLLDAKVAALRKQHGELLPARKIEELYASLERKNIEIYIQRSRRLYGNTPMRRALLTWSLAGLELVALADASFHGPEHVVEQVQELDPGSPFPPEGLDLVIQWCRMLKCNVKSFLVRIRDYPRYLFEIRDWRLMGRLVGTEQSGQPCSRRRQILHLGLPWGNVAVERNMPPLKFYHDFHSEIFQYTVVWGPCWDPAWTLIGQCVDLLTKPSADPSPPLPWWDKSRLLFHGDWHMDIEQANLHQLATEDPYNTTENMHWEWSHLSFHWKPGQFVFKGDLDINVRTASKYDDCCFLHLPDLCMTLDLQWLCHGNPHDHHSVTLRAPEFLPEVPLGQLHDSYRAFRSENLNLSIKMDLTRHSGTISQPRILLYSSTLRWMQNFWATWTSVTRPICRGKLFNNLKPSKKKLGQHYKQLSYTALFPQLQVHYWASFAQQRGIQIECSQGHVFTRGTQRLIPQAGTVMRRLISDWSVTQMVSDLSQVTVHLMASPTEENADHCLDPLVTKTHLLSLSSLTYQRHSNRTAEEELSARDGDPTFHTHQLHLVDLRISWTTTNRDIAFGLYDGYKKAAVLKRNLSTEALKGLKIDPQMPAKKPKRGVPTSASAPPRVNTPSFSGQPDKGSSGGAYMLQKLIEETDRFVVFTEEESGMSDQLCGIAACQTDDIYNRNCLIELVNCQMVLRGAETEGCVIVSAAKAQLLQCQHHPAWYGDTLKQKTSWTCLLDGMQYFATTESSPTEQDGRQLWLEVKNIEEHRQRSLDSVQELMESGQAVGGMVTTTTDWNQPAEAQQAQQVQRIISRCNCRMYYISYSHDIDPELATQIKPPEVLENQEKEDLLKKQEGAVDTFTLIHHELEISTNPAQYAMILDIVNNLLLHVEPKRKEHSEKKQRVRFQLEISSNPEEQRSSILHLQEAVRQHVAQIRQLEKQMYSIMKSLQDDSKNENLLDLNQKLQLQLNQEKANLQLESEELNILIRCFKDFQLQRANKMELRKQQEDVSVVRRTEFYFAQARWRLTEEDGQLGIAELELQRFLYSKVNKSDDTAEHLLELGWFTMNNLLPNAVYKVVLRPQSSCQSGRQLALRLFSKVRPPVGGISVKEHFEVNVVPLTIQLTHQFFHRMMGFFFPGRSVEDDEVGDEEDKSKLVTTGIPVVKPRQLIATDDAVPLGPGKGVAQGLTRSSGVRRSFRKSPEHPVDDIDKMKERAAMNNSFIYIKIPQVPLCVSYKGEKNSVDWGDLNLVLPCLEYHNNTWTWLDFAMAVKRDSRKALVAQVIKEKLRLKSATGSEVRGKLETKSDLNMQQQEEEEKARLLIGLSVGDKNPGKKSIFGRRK
UniProt Q96SI1: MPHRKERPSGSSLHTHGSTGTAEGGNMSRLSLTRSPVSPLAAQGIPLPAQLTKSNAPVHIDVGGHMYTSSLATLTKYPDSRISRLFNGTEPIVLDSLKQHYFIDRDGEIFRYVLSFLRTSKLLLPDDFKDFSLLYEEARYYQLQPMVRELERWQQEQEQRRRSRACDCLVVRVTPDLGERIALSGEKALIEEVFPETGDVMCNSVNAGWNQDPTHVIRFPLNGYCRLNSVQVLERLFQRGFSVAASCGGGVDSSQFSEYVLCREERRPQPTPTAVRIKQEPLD
UniProt Q15652: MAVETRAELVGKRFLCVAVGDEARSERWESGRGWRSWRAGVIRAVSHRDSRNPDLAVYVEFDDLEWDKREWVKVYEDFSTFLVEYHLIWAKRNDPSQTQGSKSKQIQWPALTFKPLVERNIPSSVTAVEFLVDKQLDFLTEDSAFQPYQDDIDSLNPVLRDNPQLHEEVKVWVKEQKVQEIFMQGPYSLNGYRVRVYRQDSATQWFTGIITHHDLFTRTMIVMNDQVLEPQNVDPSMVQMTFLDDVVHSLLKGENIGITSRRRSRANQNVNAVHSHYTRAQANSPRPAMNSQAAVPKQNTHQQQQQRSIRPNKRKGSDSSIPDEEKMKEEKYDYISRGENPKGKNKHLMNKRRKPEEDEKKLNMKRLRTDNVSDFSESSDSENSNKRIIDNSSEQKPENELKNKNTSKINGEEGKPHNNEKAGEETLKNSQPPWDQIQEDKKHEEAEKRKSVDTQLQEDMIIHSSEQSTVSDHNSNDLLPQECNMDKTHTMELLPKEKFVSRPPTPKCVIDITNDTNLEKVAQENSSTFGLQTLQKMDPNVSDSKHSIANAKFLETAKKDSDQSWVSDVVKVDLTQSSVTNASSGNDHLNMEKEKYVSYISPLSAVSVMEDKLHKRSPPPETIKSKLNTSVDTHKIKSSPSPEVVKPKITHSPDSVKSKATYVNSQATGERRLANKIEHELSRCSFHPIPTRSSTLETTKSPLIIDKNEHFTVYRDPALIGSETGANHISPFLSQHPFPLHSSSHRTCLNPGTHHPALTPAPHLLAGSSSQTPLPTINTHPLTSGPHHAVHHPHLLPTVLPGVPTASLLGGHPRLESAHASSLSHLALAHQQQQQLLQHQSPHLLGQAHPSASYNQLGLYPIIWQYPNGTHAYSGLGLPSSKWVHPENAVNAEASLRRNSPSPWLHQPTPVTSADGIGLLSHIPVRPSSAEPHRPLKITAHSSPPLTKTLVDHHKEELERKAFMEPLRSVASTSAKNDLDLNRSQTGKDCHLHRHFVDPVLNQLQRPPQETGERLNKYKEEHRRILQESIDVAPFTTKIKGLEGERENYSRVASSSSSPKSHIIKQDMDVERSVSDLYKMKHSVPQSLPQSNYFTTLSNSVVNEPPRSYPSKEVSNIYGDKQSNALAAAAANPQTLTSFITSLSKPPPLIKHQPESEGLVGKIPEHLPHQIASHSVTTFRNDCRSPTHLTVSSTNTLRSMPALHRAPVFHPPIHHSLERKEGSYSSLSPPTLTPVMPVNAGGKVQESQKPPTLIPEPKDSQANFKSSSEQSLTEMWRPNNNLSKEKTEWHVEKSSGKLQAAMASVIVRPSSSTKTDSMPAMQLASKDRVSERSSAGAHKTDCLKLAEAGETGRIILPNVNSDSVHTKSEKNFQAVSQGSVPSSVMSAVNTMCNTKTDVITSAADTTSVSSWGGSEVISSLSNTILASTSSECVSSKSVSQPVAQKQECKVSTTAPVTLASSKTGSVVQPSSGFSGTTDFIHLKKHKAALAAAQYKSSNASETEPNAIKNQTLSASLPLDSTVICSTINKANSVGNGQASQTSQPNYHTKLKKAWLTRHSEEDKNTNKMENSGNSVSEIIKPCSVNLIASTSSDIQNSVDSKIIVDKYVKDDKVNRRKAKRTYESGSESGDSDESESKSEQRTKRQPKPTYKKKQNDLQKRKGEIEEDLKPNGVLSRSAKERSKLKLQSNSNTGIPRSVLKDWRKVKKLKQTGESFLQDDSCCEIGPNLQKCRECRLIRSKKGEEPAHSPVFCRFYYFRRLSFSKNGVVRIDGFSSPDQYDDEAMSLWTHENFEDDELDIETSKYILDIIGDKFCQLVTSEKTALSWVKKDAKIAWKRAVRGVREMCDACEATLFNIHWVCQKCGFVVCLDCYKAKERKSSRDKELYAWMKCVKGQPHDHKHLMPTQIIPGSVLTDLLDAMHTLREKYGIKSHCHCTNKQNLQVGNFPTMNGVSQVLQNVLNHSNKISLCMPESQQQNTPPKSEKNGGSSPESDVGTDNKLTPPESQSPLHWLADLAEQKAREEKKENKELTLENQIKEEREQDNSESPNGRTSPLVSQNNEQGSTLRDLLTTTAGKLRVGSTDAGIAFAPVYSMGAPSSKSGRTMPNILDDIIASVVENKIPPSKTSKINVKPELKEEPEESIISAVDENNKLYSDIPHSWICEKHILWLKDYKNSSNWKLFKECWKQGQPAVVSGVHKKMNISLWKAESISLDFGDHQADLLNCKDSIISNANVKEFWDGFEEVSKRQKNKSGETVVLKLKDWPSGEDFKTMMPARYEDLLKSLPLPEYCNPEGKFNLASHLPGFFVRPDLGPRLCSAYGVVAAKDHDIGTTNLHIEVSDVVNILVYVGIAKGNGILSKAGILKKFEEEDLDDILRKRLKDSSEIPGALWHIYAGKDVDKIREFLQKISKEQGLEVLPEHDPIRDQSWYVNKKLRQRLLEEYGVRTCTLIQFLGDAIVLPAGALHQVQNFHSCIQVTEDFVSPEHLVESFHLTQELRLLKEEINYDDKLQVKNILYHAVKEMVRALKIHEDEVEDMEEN

Columns and labels:
Assay in all cases: log2 fold change, soluble protein after heating vs DMSO (PISA); higher = thermal stabilisation; K562 cells, 10 uM, 30 min; active = over 0.2 and 3.5 SD of the protein, either way, in both replicates (recomputed)
[1] = compound: COC1=CC=C(C=C1)CN2C=CC3=C2C=C(C=C3)C(=O)NO
Method in brief: (§1)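 Values are thermal stability changes relative to control samples and are taken from duplicates. They are stated as log2 fold changes. Before quantification by TMTpro 16plex LC-MS/MS with equalised channel sums, K562 cells at 2×10^6 cells/mL were treated with 10 μM compound for 30 min, heated in aliquots for 3 min across 48°C-58°C, pooled, extracted in PBS with 0.5% NP-40 at 4°C, and centrifuged at 21,000xg for 90 min to give the soluble supernatant.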

[2] = compound: CON(C)C(=O)N1N=C(c2cc(F)ccc2F)S[C@@]1(CCCN)c1ccccc1 [filanesib]
Method in brief: as §1

[3] = compound: CO[C@H]1C[C@@H]2CC[C@@H](C)[C@@](O)(O2)C(=O)C(=O)N2CCCC[C@H]2C(=O)O[C@H]([C@H](C)C[C@@H]2CC[C@H](n3cnnn3)[C@H](OC)C2)CC(=O)[C@H](C)/C=C(\C)[C@@H](O)[C@@H](OC)C(=O)[C@H](C)C[C@H](C)/C=C/C=C/C=C/1C [zotarolimus]
Method in brief: as §1

[4] = compound: COc1cc(C(=O)O)ccc1NC(=O)[C@@H]1N[C@@H](CC(C)(C)C)[C@](C#N)(c2ccc(Cl)cc2F)[C@H]1c1cccc(Cl)c1F [idasanutlin]
Method in brief: as §1

[5] = compound: COc1cc(Nc2ncc3c(n2)-c2ccc(Cl)cc2C(c2c(F)cccc2OC)=NC3)ccc1C(=O)O [alisertib]
Method in brief: as §1

[6] = compound: COc1cc2nc(-c3cc(F)ccc3O)nc(N[C@@H]3CNC[C@H]3C(C)(C)O)c2cc1OC
Method in brief: as §1

[7] = compound: COc1cc2ncnc(Nc3ccc(F)c(Cl)c3)c2cc1OCCCN1CCOCC1 [gefitinib]
Method in brief: as §1

[8] = compound: COc1cccc2cc(-c3nc([C@H]4CC[C@H](C(=O)O)CC4)n4ncnc(N)c34)[nH]c12
Method in brief: as §1

[9] = compound: CS(=O)(=O)CCNCc1ccc(-c2ccc3ncnc(Nc4ccc(OCc5cccc(F)c5)c(Cl)c4)c3c2)o1 [lapatinib]
Method in brief: as §1

[10] = compound: CS(=O)(=O)N1CCN(Cc2cc3nc(-c4cccc5[nH]ncc45)nc(N4CCOCC4)c3s2)CC1 [pictilisib]
Method in brief: as §1

[11] = compound: CS(=O)(=O)c1ccc(-c2cnc(N)c(C(=O)Nc3ccccc3)n2)cc1
Method in brief: as §1

[12] = compound: C[C@@H](Oc1cc(-c2cnn(C3CCNCC3)c2)cnc1N)c1c(Cl)ccc(F)c1Cl [crizotinib]
Method in brief: as §1

[13] = compound: C[C@@H]1COCCN1C2=NC(=NC(=C2)C3(CC3)S(=O)(=O)C)C4=C5C=CNC5=CC=C4
Method in brief: as §1

[14] = compound: C[C@H](C1=CC=C(C=C1)C(=O)NC2=C3C=CNC3=NC=C2)N
Method in brief: as §1

[15] = compound: C[C@H](Nc1ncnc2nc[nH]c12)c1cc2cccc(Cl)c2c(=O)n1-c1ccccc1 [duvelisib]
Method in brief: as §1

[16] = compound: Cc1cc(Nc2cc(CN3CCOCC3)c3nc(C)c(Cc4ccc(Cl)cc4F)n3n2)n[nH]1 [gandotinib]
Method in brief: as §1

[17] = compound: Cc1cc(Nc2cc(N3CCN(C)CC3)nc(Sc3ccc(NC(=O)C4CC4)cc3)n2)n[nH]1 [tozasertib]
Method in brief: as §1

[18] = compound: Cc1cc(SCc2sc(-c3ccc(C(F)(F)F)cc3)nc2C)ccc1OCC(=O)O
Method in brief: as §1

[19] = compound: Cc1ccc(-n2nc(C(C)(C)C)cc2NC(=O)Nc2ccc(OCCN3CCOCC3)c3ccccc23)cc1 [doramapimod]
Method in brief: as §1

[20] = compound: Cc1ccc(C(=O)N(CCCN)[C@@H](c2nc3cc(Cl)ccc3c(=O)n2Cc2ccccc2)C(C)C)cc1 [ispinesib]
Method in brief: as §1

Measured: log2 fold change

KLC4 isoform 3 (UniProt Q9NSK0)
inactive: [1] 0.186 | [2] -0.013 | [3] 0.043 | [4] -0.022 | [5] -0.072 | [6] -0.113 | [7] 0.058 | [8] -0.068 | [9] 0.036 | [10] -0.017 | [11] 0.064 | [12] -0.032 | [13] 0.01 | [14] -0.014 | [15] 0.043 | [16] -0.015 | [17] -0.009 | [18] -0.009 | [19] -0.019 | [20] 0.039

KIAA0319L (UniProt Q8IZA0)
inactive: [1] 0.027 | [2] 0.017 | [3] 0.007 | [4] -0.011 | [5] -0.011 | [6] 0.001 | [7] -0.006 | [8] 0.035 | [9] 0.028 | [10] 0.004 | [11] 0.006 | [12] -0.13 | [13] -0.046 | [14] -0.017 | [15] -0.014 | [16] 0.013 | [17] -0.018 | [18] -0.03 | [19] 0.013 | [20] -0.17

JPT2 isoform 3 (UniProt Q9H910)
inactive: [1] 0.017 | [2] -0.015 | [3] 0.015 | [4] 0.246 | [5] -0.057 | [6] -0.015 | [7] 0.003 | [8] 0.039 | [9] 0.004 | [10] 0.019 | [11] 0.005 | [12] 0.018 | [13] -0.015 | [14] -0.006 | [15] 0.015 | [16] -0.023 | [17] -0.05 | [18] -0.053 | [19] 0.008 | [20] 0.034

Taken from the listing (two entries):
KLC4 isoform 3 (UniProt Q9NSK0)
inactive: [1] 0.186 | [2] -0.013 | [3] 0.043 | [4] -0.022 | [5] -0.072 | [6] -0.113 | [7] 0.058 | [8] -0.068 | [9] 0.036 | [10] -0.017 | [11] 0.064 | [12] -0.032 | [13] 0.01 | [14] -0.014 | [15] 0.043 | [16] -0.015 | [17] -0.009 | [18] -0.009 | [19] -0.019 | [20] 0.039

KIAA0319L (UniProt Q8IZA0)
inactive: [1] 0.027 | [2] 0.017 | [3] 0.007 | [4] -0.011 | [5] -0.011 | [6] 0.001 | [7] -0.006 | [8] 0.035 | [9] 0.028 | [10] 0.004 | [11] 0.006 | [12] -0.13 | [13] -0.046 | [14] -0.017 | [15] -0.014 | [16] 0.013 | [17] -0.018 | [18] -0.03 | [19] 0.013 | [20] -0.17

(list continues)

KLC1 isoform 6 (UniProt Q07866)
inactive: [1] -0.007 | [2] -0.053 | [3] 0.005 | [4] -0.046 | [5] -0.055 | [6] -0.03 | [7] -0.015 | [8] 0.001 | [9] 0 | [10] 0.052 | [11] 0.015 | [12] -0.052 | [13] 0.07 | [14] -0.013 | [15] 0.057 | [16] -0.084 | [17] -0.007 | [18] -0.005 | [19] 0.013 | [20] 0.01

KATNA1 (UniProt O75449)
inactive: [1] 0.007 | [2] 0.024 | [3] -0.011 | [4] 0 | [5] -0.078 | [6] -0.028 | [7] 0.002 | [8] -0.073 | [9] 0.042 | [10] 0.009 | [11] -0.029 | [12] -0.08 | [13] 0.016 | [14] 0.054 | [15] -0.03 | [16] -0.004 | [17] 0.022 | [18] 0.056 | [19] 0.071 | [20] -0.069

KIF5A (UniProt Q12840)
inactive: [1] -0.049 | [2] 0.028 | [3] -0.015 | [4] -0.013 | [5] -0.031 | [6] 0.043 | [7] 0.009 | [8] 0.012 | [9] -0.043 | [10] -0.034 | [11] 0.026 | [12] -0.013 | [13] 0.049 | [14] 0.023 | [15] 0.051 | [16] -0.093 | [17] -0.011 | [18] 0 | [19] -0.024 | [20] 0.027

KBTBD2 (UniProt Q8IY47)
inactive: [1] 0.006 | [2] -0.072 | [3] -0.012 | [4] -0.077 | [5] -0.12 | [6] 0.048 | [7] 0.005 | [8] 0.102 | [9] 0.02 | [10] 0.023 | [11] 0.001 | [12] 0 | [13] 0.032 | [14] -0.08 | [15] 0.005 | [16] -0.085 | [17] -0.075 | [18] 0.029 | [19] -0.023 | [20] 0.066

KIF2A isoform 4 (UniProt O00139)
inactive: [1] -0.031 | [2] 0.202 | [3] 0.025 | [4] 0.05 | [5] -0.066 | [6] 0.038 | [7] 0.002 | [8] -0.066 | [9] 0.039 | [10] -0.004 | [11] -0.057 | [12] -0.066 | [13] -0.138 | [14] 0.105 | [15] -0.04 | [16] 0.006 | [17] -0.046 | [18] 0.068 | [19] 0.139 | [20] -0.177

JAGN1 (UniProt Q8N5M9)
inactive: [1] -0.09 | [2] -0.012 | [3] 0.015 | [4] -0.062 | [5] -0.031 | [6] -0.091 | [7] -0.034 | [8] 0.085 | [9] -0.045 | [10] 0.049 | [11] 0 | [12] 0.079 | [13] 0.117 | [14] -0.079 | [15] 0.08 | [16] -0.05 | [17] 0.011 | [18] 0.011 | [19] -0.031 | [20] 0.182

KIAA0100 (UniProt Q14667)
inactive: [1] -0.035 | [2] -0.088 | [3] -0.024 | [4] -0.044 | [5] 0.052 | [6] 0.164 | [7] -0.027 | [8] 0.033 | [9] -0.028 | [10] -0.055 | [11] 0.062 | [12] 0.016 | [13] 0.033 | [14] -0.026 | [15] 0.068 | [16] -0.002 | [17] -0.132 | [18] -0.083 | [19] -0.027 | [20] -0.064

KCTD15 (UniProt Q96SI1)
inactive: [1] -0.154 | [2] 0.151 | [3] -0.051 | [4] 0.011 | [5] -0.065 | [6] 0.046 | [7] 0.061 | [8] 0.052 | [9] -0.019 | [10] 0.05 | [11] 0.042 | [12] 0.046 | [13] -0.029 | [14] 0.144 | [15] 0.085 | [16] -0.002 | [17] -0.037 | [18] -0.051 | [19] 0.016 | [20] -0.073

JMJD1C (UniProt Q15652)
inactive: [1] 0.086 | [2] -0.05 | [3] -0.016 | [4] 0.063 | [5] -0.01 | [6] -0.004 | [7] 0.072 | [8] -0.122 | [9] -0.007 | [10] 0.052 | [11] -0.053 | [12] -0.016 | [13] 0.052 | [14] 0.037 | [15] -0.01 | [16] -0.042 | [17] 0.007 | [18] 0.018 | [19] 0.02 | [20] 0.016

KDM8 isoform 3 (UniProt Q8N371)
inactive: [1] 0.083 | [2] -0.025 | [3] 0.025 | [4] -0.183 | [5] -0.041 | [6] 0.055 | [7] 0.019 | [8] 0.082 | [9] 0.019 | [10] 0.061 | [11] 0.016 | [12] 0.053 | [13] 0.114 | [14] -0.089 | [15] 0.026 | [16] -0.094 | [17] 0.051 | [18] 0.034 | [19] -0.069 | [20] 0.043

IVNS1ABP (UniProt Q9Y6Y0)
inactive: [1] 0.089 | [2] 0.063 | [3] 0.067 | [4] -0.08 | [5] 0.038 | [6] 0.028 | [7] -0.056 | [8] -0.062 | [9] 0.069 | [10] -0.059 | [11] 0.054 | [12] 0.416 | [13] -0.125 | [14] 0.192 | [15] 0.004 | [16] -0.055 | [17] 0.011 | [18] 0.055 | [19] -0.001 | [20] -0.048

KARS1 (UniProt Q15046)
inactive: [1] -0.094 | [2] 0.16 | [3] -0.028 | [4] 0.117 | [5] -0.084 | [6] -0.024 | [7] -0.024 | [8] -0.062 | [9] 0.032 | [10] -0.113 | [11] -0.029 | [12] 0.016 | [13] -0.151 | [14] 0.164 | [15] -0.096 | [16] -0.027 | [17] -0.006 | [18] -0.015 | [19] 0.131 | [20] -0.156

KIAA2013 isoform 2 (UniProt Q8IYS2)
inactive: [1] -0.04 | [2] -0.048 | [3] 0.002 | [4] -0.077 | [5] -0.005 | [6] 0.062 | [7] 0.015 | [8] 0.065 | [9] -0.074 | [10] -0.034 | [11] -0.023 | [12] 0.071 | [13] 0.046 | [14] -0.029 | [15] 0.035 | [16] 0.069 | [17] -0.033 | [18] -0.01 | [19] 0.006 | [20] 0.013
